Publication PMC4358367, “Structural basis of diverse membrane target recognitions by ankyrins” (eLife, 2014)
No constants are given. Whether binding was seen depends on the method and setting. A result given as binding can be weak or reduced; the word gives no strength. Values belong to the substance of their own block, whether it stands above or below them.

Key:
[1] = target: T1, AnkB_repeats_R1–9 (first nine ANK repeats of AnkB, residues 28–318, followed by the capping sequence 814–822) (human) (UniProt Q01484); experiment: crystal structure; Nav1.2_ABD-C fused in front of AnkB_repeats_R1–9 on one chain; 2.5 Å; 1.8 M ammonium sulfate, 6–8% dioxane, 0.1 M MES pH 6.5, 16°C; both purified
T1 sequence: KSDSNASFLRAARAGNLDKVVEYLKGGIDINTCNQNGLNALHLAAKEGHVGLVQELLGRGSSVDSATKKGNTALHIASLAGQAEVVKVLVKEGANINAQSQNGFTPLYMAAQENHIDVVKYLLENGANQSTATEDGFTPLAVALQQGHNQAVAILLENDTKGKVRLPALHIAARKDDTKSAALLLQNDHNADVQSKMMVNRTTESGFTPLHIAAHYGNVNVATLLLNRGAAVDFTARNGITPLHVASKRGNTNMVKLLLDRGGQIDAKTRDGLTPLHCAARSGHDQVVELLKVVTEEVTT

[2] = target: T2, AnkG_repeats (24 ANK repeats of rat 190 kDa ankyrin-G, residues 38–855) (rat) (UniProt O70511); experiment: ITC; VP-ITC at 25°C; 50 mM Tris pH 7.5, 100 mM NaCl, 1 mM EDTA, 1 mM DTT; binding partner (AS, Nav1.2 ABD proteins, neurofascin ABD; 200–300 µM) in the syringe, ANK repeats (20–30 µM) in the cell; one-site binding model; both purified
T2 sequence: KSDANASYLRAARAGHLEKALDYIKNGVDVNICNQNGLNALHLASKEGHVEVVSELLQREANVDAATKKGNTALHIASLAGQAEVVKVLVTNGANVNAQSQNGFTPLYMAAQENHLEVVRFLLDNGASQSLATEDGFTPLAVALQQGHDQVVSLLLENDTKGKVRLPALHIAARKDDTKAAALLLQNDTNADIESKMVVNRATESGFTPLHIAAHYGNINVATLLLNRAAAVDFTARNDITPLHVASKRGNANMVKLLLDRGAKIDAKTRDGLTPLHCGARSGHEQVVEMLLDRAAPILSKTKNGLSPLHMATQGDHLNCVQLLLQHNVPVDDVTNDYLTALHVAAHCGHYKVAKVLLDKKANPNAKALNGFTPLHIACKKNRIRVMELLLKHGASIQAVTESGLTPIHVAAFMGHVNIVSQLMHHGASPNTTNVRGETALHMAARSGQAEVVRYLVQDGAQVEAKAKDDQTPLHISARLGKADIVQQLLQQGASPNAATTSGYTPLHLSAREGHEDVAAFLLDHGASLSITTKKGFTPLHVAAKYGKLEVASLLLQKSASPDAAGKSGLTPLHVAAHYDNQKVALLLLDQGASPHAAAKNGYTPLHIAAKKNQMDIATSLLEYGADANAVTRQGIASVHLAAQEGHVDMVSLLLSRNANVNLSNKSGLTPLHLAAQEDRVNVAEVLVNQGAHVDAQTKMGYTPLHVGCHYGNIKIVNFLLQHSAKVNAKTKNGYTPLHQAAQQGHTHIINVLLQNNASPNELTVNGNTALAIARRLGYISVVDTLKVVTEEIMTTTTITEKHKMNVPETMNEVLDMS

[3] = target: T2, AnkG_repeats (24 ANK repeats of rat 190 kDa ankyrin-G, residues 38–855) (rat); experiment: SEC; analytical gel filtration, Superose 12 10/300 GL; 50 mM Tris pH 7.5, 100 mM NaCl, 1 mM EDTA, 1 mM DTT; AS fused to the N-terminus of AnkG_repeats mixed with Nav1.2 ABD or Nfasc ABD; both purified

binding [1]: binds
Substance: Nav1.2_ABD-C (27-residue motif of loop 2, residues 1103–1129) (mouse) (domain or fragment)

binding [2]: binds
Substance: Nav1.2 ABD without the C-terminal less-conserved 10 residues of ABD-C (mouse) (domain or fragment)

binding [3]: binds
Substance: Nav1.2_ABD (ankyrin binding domain of Nav1.2, residues 1035–1129) (mouse) (domain or fragment)
